The list shows a part of the results.
Assays:
Assay in all cases: protein microarray (ProtoArray v5.0), streptavidin-Alexa Fluor 647
Settings in all cases: 3'-biotin; 20 mM Tris (pH 7.5), 5 mM MgCl2, 100 mM KCl, 0.1% Tween-20, A/T-rich and random oligonucleotide blockers; temperature not stated; high values mean tight binding
PSMD5 (human) = tested on: PSMD5 (human)
PSME1 (human) = tested on: PSME1 (human)
PSPH (human) = tested on: PSPH (human)
PTCHD1 (human) = tested on: PTCHD1 (human)
PTGES2 (human) = tested on: PTGES2 (human)
PTK2B (human) = tested on: PTK2B (human)
PTK6 (human) = tested on: PTK6 (human)
PTMS (human) = tested on: PTMS (human)
PTPN1 (human) = tested on: PTPN1 (human)
PTPN12 (human) = tested on: PTPN12 (human)

Q: With “GGGAGGCTGAGGCAGG [G4-1 biotinylated (PQS2)]” as the sequence, how does the binding signal (PSMD5 (human)) read?
A: The binding signal was -0.362 z-score.

Q: What about the binding signal (PSME1 (human)) of the same sequence?
A: The binding signal was -0.359 z-score.

Q: And the binding signal (PSPH (human))?
A: Its binding signal is -0.321 z-score.

Q: And the binding signal (PTCHD1 (human))?
A: Its binding signal is -0.326 z-score.

Q: And the binding signal (PTGES2 (human))?
A: Its binding signal is -0.353 z-score.

Q: And the binding signal (PTK2B (human))?
A: The binding signal was -0.355 z-score.

Q: What about the binding signal (PTK6 (human)) of the same sequence?
A: The binding signal was -0.279 z-score.

Q: What about the binding signal (PTMS (human)) of the same sequence?
A: The binding signal was -0.33 z-score.

Q: And the binding signal (PTPN1 (human))?
A: The binding signal was -0.351 z-score.

Q: And the binding signal (PTPN12 (human))?
A: The binding signal was -0.319 z-score.

Reference: article PMC5996148
